No constants are given. Whether binding was seen depends on the method and setting. In cells and extracts the contact can be indirect. Some results given as binding are weak or reduced against the parent protein; the word gives no strength.
What was measured:
[1] = molecular target: vimentin L387P (human) (human) (UniProt P08670); test: co-IP
[2] = molecular target: vimentin wild-type (human) (human) (UniProt P08670); test: co-IP

Chains of the proteins cited; added tags and fusions are not shown. Lines headed by an entry give the natural chain unless they say otherwise; changes in a name come on top. Residues count along the entry.
UniProt P08670: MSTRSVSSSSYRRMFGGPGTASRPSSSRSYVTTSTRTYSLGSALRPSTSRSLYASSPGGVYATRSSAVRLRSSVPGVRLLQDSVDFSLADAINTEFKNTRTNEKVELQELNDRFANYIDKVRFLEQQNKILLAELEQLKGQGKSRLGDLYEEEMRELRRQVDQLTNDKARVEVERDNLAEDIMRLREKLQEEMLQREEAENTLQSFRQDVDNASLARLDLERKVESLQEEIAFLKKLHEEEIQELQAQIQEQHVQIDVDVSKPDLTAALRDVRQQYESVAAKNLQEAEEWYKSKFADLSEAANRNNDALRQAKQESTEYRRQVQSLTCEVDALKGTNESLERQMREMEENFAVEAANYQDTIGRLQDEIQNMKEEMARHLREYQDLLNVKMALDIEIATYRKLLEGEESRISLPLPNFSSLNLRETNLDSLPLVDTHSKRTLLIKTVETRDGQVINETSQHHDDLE
UniProt P11021, residues 19-654: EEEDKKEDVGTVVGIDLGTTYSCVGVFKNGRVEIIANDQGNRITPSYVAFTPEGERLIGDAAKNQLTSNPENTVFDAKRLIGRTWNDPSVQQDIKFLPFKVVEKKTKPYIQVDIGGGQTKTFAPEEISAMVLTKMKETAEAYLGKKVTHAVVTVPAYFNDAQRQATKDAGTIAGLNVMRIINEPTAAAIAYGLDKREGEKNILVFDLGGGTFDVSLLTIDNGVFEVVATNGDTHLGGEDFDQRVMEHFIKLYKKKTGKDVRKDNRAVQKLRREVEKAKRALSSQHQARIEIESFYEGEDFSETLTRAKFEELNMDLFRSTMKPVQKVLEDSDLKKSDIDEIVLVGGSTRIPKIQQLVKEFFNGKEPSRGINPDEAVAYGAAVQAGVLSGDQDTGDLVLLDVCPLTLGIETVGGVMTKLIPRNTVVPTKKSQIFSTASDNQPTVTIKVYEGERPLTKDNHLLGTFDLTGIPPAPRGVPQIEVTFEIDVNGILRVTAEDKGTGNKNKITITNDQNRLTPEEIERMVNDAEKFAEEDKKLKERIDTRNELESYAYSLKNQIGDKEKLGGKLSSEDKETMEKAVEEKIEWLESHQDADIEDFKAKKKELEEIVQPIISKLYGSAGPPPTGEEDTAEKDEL
UniProt P14625, residues 22-803: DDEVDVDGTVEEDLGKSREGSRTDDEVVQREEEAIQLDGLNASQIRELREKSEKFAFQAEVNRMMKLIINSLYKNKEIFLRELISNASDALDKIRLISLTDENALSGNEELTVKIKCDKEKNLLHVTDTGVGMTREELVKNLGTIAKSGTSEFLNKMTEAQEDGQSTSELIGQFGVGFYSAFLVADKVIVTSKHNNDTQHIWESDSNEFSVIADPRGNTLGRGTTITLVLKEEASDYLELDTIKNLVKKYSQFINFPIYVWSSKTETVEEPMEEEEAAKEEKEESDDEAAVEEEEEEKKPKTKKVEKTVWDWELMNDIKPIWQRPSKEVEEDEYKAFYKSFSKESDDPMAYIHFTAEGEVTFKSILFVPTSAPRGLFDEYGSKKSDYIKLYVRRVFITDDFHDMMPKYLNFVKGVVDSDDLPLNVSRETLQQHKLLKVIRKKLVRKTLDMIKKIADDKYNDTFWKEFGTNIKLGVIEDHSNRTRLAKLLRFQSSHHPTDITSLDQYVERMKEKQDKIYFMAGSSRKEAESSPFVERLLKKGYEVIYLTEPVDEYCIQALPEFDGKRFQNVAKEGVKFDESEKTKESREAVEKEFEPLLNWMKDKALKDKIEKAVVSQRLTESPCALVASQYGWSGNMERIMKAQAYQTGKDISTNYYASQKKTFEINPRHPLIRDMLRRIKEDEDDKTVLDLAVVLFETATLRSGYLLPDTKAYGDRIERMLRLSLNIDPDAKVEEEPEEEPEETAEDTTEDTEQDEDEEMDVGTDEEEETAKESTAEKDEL

Substance	binding [1]	binding [2]
GRP78 (from UniProt P11021 19-654)	binds	binds
GRP94 (from UniProt P14625 22-803)	binds	binds
